At least one compound was matched to its structure with a doubt left.
System: PRA
Experiment: PRA protein levels by Western blot in endometriotic cells
Settings: Hs832 cells, estradiol 10^−10/10^−7M

C[C@]12CC[C@@H]3c4ccc(O)cc4CC[C@H]3[C@@H]1CC[C@@H]2O [estradiol, 17-B estradiol]
PRA protein levels over β-actin: significant decrease

Source: patent publication US20240316064A1, “USE OF ESTRETOL AS A TREATMENT FOR ENDOMETRIOSIS” (UNIVERSIDAD BERNANDO O'HIGGINS, priority 2021, published 2024)
